In the supplement of paper PMC3334620:
In all, about 33,000 sequences were measured (“E-score (-0.5 to 0.5)”: median about -0.0014, highest 2% from about 0.25 on). This is one part of the list.

These sequences were tested against T1, Cad1 (UniProt P24813) (assay: PBM E-score (8-mer binding enrichment) (E-score (-0.5 to 0.5)); higher = stronger / more preferred TF binding). Conditions: protein concentration: 100 nM; construct: GST-full length.
T1 sequence: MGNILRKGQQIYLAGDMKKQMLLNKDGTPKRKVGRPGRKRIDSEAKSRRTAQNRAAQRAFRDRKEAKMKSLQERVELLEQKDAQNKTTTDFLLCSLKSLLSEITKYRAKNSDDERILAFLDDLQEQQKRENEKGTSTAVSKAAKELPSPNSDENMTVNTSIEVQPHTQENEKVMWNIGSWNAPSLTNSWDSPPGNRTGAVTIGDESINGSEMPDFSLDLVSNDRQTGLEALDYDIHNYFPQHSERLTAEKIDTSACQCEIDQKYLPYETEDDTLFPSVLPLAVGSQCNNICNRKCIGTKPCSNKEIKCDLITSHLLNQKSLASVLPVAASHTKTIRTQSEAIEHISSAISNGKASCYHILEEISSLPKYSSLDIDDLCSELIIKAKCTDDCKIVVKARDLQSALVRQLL
Summary of the method: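 PURExpress in vitro transcription/translation supplied GST-tagged yeast transcription factors, either full-length or DNA-binding domain. Applied at about 100-200 nM to universal all-10-mer Agilent arrays double-stranded by primer extension, the bound protein was detected with fluorescent anti-GST. E-scores, modified Wilcoxon-Mann-Whitney statistics, were given by the Universal PBM Analysis Suite to ungapped eight-base words pooled with their reverse complements after masliner normalisation.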
In the case of AGACGACT, the “PBM E-score” value is reported as -0.0688. In the case of GGATATCC, the “PBM E-score” value is reported as 0.202. For CTTGGATC, the “PBM E-score” value was -0.0474. In the case of ACGCAACT, the “PBM E-score” value is reported as 0.103. For GAAGATAA, the “PBM E-score” value was 0.0962. For CAAGTCAG, the “PBM E-score” value was -0.0206. For AACTTAAG, the “PBM E-score” value was 0.0278. With AGGGAAAG the “PBM E-score” value was -0.25. In the case of CGGTGGAA, the “PBM E-score” value is reported as -0.0736. In the case of GACCGATA, the “PBM E-score” value is reported as 0.0943. For ATGGAGTC, the “PBM E-score” value was -0.0103. For GAACTGCC, the “PBM E-score” value was 0.00888. In the case of CCCGATCG, the “PBM E-score” value is reported as 0.0489. With ATCTGCGA the “PBM E-score” value was 0.0716. GTTCATCA was tested, and the “PBM E-score” value was 0.106. With GCAGATAC the “PBM E-score” value was 0.095. With CTGATATA the “PBM E-score” value was 0.0682. AGCACTAG was tested, and the “PBM E-score” value was -0.00122. With AGCTGACT the “PBM E-score” value was 0.138. CTGTAGTA was tested, and the “PBM E-score” value was 0.191. CTGCGAAA was tested, and the “PBM E-score” value was 0.0969. For CGATCACC, the “PBM E-score” value was -0.0201. With ACGACTCT the “PBM E-score” value was 0.0531. CATCTGGA was tested, and the “PBM E-score” value was -0.165. In the case of AACGTGCA, the “PBM E-score” value is reported as -0.0818. In the case of GATAGCCC, the “PBM E-score” value is reported as -0.213. In the case of CCGGCGTA, the “PBM E-score” value is reported as -0.0131. GATTTTTA was tested, and the “PBM E-score” value was -0.0272. For CCTTCGAG, the “PBM E-score” value was -0.189. With CGGTAGCC the “PBM E-score” value was 0.0668. In the case of GGGTATAA, the “PBM E-score” value is reported as -0.089. In the case of CGATACCA, the “PBM E-score” value is reported as 0.0121. With ACATTCTA the “PBM E-score” value was -0.091. AACCGTGC was tested, and the “PBM E-score” value was 0.154. With CCAATAGA the “PBM E-score” value was -0.191. CACTCTGA was tested, and the “PBM E-score” value was -0.095. In the case of CAGTTCGA, the “PBM E-score” value is reported as -0.0357. In the case of ATTGTTGG, the “PBM E-score” value is reported as 0.143. AGTGGGAA was tested, and the “PBM E-score” value was 0.0875. CTGTATCA was tested, and the “PBM E-score” value was -0.0921. With GAAGAATC the “PBM E-score” value was -0.0942. In the case of GAGGCTGC, the “PBM E-score” value is reported as -0.0933. For CGAGCCCC, the “PBM E-score” value was -0.346. GACTACCA was tested, and the “PBM E-score” value was -0.266. CCGGGTAA was tested, and the “PBM E-score” value was 0.126. In the case of ACCGATCG, the “PBM E-score” value is reported as 0.0355. AGTCATAT was tested, and the “PBM E-score” value was -0.0253. With CGACAGGA the “PBM E-score” value was 0.0186. For AAGCTTAG, the “PBM E-score” value was 0.219. In the case of TCTGAGCA, the “PBM E-score” value is reported as 0.0835. In the case of ACCCTATC, the “PBM E-score” value is reported as -0.144. With GAGACGTA the “PBM E-score” value was -0.0175. In the case of ATTTGGAG, the “PBM E-score” value is reported as -0.204. ACATTAAA was tested, and the “PBM E-score” value was 0.11. For CCTGTATA, the “PBM E-score” value was -0.00199. For CGTACTCC, the “PBM E-score” value was -0.124. With CCTATTTC the “PBM E-score” value was 0.0937. For AGGGATTG, the “PBM E-score” value was 0.0279. In the case of GCGCGGTA, the “PBM E-score” value is reported as 0.221. For ACACTACC, the “PBM E-score” value was -0.0866. In the case of TACCTCCA, the “PBM E-score” value is reported as -0.115. With AGTGCTAA the “PBM E-score” value was 0.13. For GTCAGCCA, the “PBM E-score” value was 0.1. AACCTTAA was tested, and the “PBM E-score” value was 0.0881. For GGGGCTAA, the “PBM E-score” value was -0.0954. With GGGTGCTA the “PBM E-score” value was -0.152. For ATATAGGC, the “PBM E-score” value was 0.0282. With ACCGAAAA the “PBM E-score” value was 0.242. With CAACAAGC the “PBM E-score” value was 0.033. With ACAGCGAG the “PBM E-score” value was 0.043. With CCACGTGA the “PBM E-score” value was 0.0693. TGATTTAA was tested, and the “PBM E-score” value was 0.168. With AAAGTCTC the “PBM E-score” value was -0.186. GCAATTGC was tested, and the “PBM E-score” value was 0.33. AACGTGGG was tested, and the “PBM E-score” value was -0.00895. In the case of GGATTGTA, the “PBM E-score” value is reported as 0.0691. In the case of ACGGCGCC, the “PBM E-score” value is reported as 0.139. In the case of CCTCTCGA, the “PBM E-score” value is reported as -0.204. In the case of AGCATCCG, the “PBM E-score” value is reported as -0.0477. In the case of ATGCTCTG, the “PBM E-score” value is reported as -0.244. With CAATGTTC the “PBM E-score” value was -0.0524. GGGACTTA was tested, and the “PBM E-score” value was -0.0461. With CTACGAAG the “PBM E-score” value was -0.245. With CAACCCTG the “PBM E-score” value was -0.0802. ACCTACGT was tested, and the “PBM E-score” value was -0.0266. ATCGCACA was tested, and the “PBM E-score” value was 0.0418. With GCGCATGA the “PBM E-score” value was -0.0108. In the case of CATGCACA, the “PBM E-score” value is reported as 0.151. CATATTGA was tested, and the “PBM E-score” value was -0.12. For AGCCCGGA, the “PBM E-score” value was -0.0503. With CATCTAAC the “PBM E-score” value was -0.0706. CGGTGCTA was tested, and the “PBM E-score” value was 0.0153. In the case of CAAACGCA, the “PBM E-score” value is reported as -0.119. With CATTGGAG the “PBM E-score” value was 0.0782. In the case of AATGACTC, the “PBM E-score” value is reported as -0.0782. With GTAACTAA the “PBM E-score” value was 0.17. For CGGGTGCA, the “PBM E-score” value was -0.148. For CAATGGCC, the “PBM E-score” value was -0.208. CAGTGGGC was tested, and the “PBM E-score” value was -0.177. With CCCCTGCA the “PBM E-score” value was -0.246. For GACATCAC, the “PBM E-score” value was 0.00538. In the case of CTCTGTCC, the “PBM E-score” value is reported as 0.0196. For CATCACGA, the “PBM E-score” value was -0.0197. In the case of CTAGGCAA, the “PBM E-score” value is reported as -0.101. ATACATTC was tested, and the “PBM E-score” value was -0.0148. With GACTTGCC the “PBM E-score” value was -0.113. For AATGACAG, the “PBM E-score” value was 0.0671. ACAAGAGA was tested, and the “PBM E-score” value was -0.0185. With ACTTCCTA the “PBM E-score” value was -0.0279. CGTTAGAA was tested, and the “PBM E-score” value was 0.161. GCAGCACC was tested, and the “PBM E-score” value was -0.0839. ACACTAAA was tested, and the “PBM E-score” value was 0.144. In the case of AGCGCGTC, the “PBM E-score” value is reported as 0.0884. With AATGTCGT the “PBM E-score” value was 0.0252. In the case of GGCCGCAA, the “PBM E-score” value is reported as 0.0101. CGAACGTA was tested, and the “PBM E-score” value was -0.0401. With CCATGTCC the “PBM E-score” value was -0.127. CTGGGTCC was tested, and the “PBM E-score” value was -0.305. AGAGACAC was tested, and the “PBM E-score” value was -0.0303. For ACGTAAAT, the “PBM E-score” value was -0.00128. With GCGAACCC the “PBM E-score” value was 0.0563. With AGAAAACT the “PBM E-score” value was 0.0817. In the case of ACGGACCC, the “PBM E-score” value is reported as -0.0395. For CTTCCATC, the “PBM E-score” value was -0.0678. For CGACCAGA, the “PBM E-score” value was 0.0524. In the case of GATCTTGC, the “PBM E-score” value is reported as 0.056. ATCAGTTG was tested, and the “PBM E-score” value was 0.0213. For AAGCGCGA, the “PBM E-score” value was 0.101. GACATAGC was tested, and the “PBM E-score” value was 0.128. With ATCGCACG the “PBM E-score” value was -0.087. For TCGGCAAA, the “PBM E-score” value was -0.0575. For GAGCGATC, the “PBM E-score” value was 0.00623. With AATAGACT the “PBM E-score” value was -0.00447. ACTCTCCC was tested, and the “PBM E-score” value was -0.178. For ACCAAGGA, the “PBM E-score” value was -0.0611. For ATCGGGGC, the “PBM E-score” value was -0.23. With CAGTACTA the “PBM E-score” value was 0.105. With CCGTGTAC the “PBM E-score” value was 0.12. For ATAACCCC, the “PBM E-score” value was -0.191. With ACATGAGT the “PBM E-score” value was -0.0168. ACTTGAGC was tested, and the “PBM E-score” value was -0.213. For GATTTTAC, the “PBM E-score” value was -0.0346. For GTCGTGGA, the “PBM E-score” value was -0.0177. In the case of AATTCCTC, the “PBM E-score” value is reported as -0.0624. With CCTATATC the “PBM E-score” value was 0.154. With CTCATAAG the “PBM E-score” value was 0.0121. TCTGCGCA was tested, and the “PBM E-score” value was 0.068. With AGAGGTAC the “PBM E-score” value was -0.24. In the case of AAGTAGAA, the “PBM E-score” value is reported as -0.105. With ACAAGACC the “PBM E-score” value was -0.192. With ACCAGGAG the “PBM E-score” value was -0.182. With CGAAATAG the “PBM E-score” value was 0.0158. CTCGAAGC was tested, and the “PBM E-score” value was 0.00892. In the case of ATATAGTA, the “PBM E-score” value is reported as 0.162. GCCGCGAA was tested, and the “PBM E-score” value was -0.0612. CTAATAGA was tested, and the “PBM E-score” value was 0.154. With GACGAAGC the “PBM E-score” value was -0.153. GGAACGAC was tested, and the “PBM E-score” value was -0.0184. With CATCCCCC the “PBM E-score” value was -0.47. With CGTCCGAC the “PBM E-score” value was 0.0418. In the case of ATCGCTTA, the “PBM E-score” value is reported as 0.191. With GACGGATA the “PBM E-score” value was 0.0464. With AGATTCGG the “PBM E-score” value was 0.163. In the case of AGCACATC, the “PBM E-score” value is reported as 0.0911. With CGGGGGAG the “PBM E-score” value was -0.432. TGCACTAA was tested, and the “PBM E-score” value was 0.32. For ACTATTGA, the “PBM E-score” value was 0.187. GAGTATGA was tested, and the “PBM E-score” value was 0.0494. For AGTGGATA, the “PBM E-score” value was 0.0112. For TCCGATAA, the “PBM E-score” value was -0.0102. AGACGGGG was tested, and the “PBM E-score” value was -0.136. GGCGAAGA was tested, and the “PBM E-score” value was -0.137.
